{
  "source": "patent US20170095440A1",
  "about": "“METHOD OF TREATING CANINE PANCREATITIS” (CK9, LLC, priority 2014, published 2017)",
  "tested_on": "dogs with suspected chronic pancreatitis",
  "experiment": "Serum cobalamin before and after treatment, clinical trial",
  "format": "in vivo, dog",
  "data": [
    {"smiles": "CN(C)C(=O)COC(=O)Cc1ccc(OC(=O)c2ccc(NC(=N)N)cc2)cc1", "note": "[Camostat Mesilate, N,N-dimethylcarbamoylmethyl-4-(4-guanidinobenzoyloxy)phenylacetate methanesulfonate]", "values": [
      {"measurement": "Serum cobalamin concentration post-treatment (mean)", "setting": "4 mg/kg q 8 hrs, n=12, pre-treatment mean 868, post SD ±223, p=0.0363", "value": 695, "unit": "ng/L"},
      {"measurement": "Serum cobalamin concentration post-treatment (mean)", "setting": "8 mg/kg q 8 hrs, n=17, pre-treatment mean 748, post SD ±263, p=0.0429", "value": 629, "unit": "ng/L"},
      {"measurement": "Serum cobalamin concentration post-treatment (median)", "setting": "all treated dogs combined, n=29, pre-treatment median 843, post range 220-1001, p=0.0007", "value": 681, "unit": "ng/L"}
    ]}
  ]
}
